Measured values: the supplement of paper PMC9015667
Structures can show the parent of a compound that is named as a salt. This is one part of the list. Most values come without repeats; read them as rough.

What was measured:
Experiment in all cases: reduction in cell viability relative to untreated/vehicle; higher = more growth inhibition
Settings in all cases: 200 nM; 72 h
[1] = system: M229P (parental melanoma line)
[2] = system: M229R (matched melanoma line resistant to BRAF inhibitors)
[3] = system: M238P (parental melanoma line)
[4] = system: M238R (matched melanoma line resistant to BRAF inhibitors)
[5] = system: M249P (parental melanoma line)
[6] = system: M249R (matched melanoma line resistant to BRAF inhibitors)
[7] = system: UACC62P (parental melanoma line)
[8] = system: UACC62R (matched melanoma line resistant to BRAF inhibitors)

SMILES	reduction in cell viability [1] [%]	reduction in cell viability [2] [%]	reduction in cell viability [3] [%]	reduction in cell viability [4] [%]	reduction in cell viability [5] [%]	reduction in cell viability [6] [%]	reduction in cell viability [7] [%]	reduction in cell viability [8] [%]
CC(C)[C@H](O)C(=O)N[C@@H](C)C(=O)N[C@@H]1C(=O)N(C)CCc2ccccc21 [Semagacestat]	< 0	< 0	< 0	< 0	< 0	< 0	19.1	< 0
Clc1ccccc1CN1CCc2sccc2C1 [Ticlopidine hydrochloride]	< 0	< 0	< 0	< 0	< 0	2.54	< 0	< 0
Nc1ncnc2nc(-c3ccc(N4CCOCC4)nc3)cc(-c3cccc(Br)c3)c12	< 0	< 0	< 0	< 0	< 0	< 0	< 0	< 0
Nc1ncnc2c1ncn2[C@@H]1O[C@H](CO)[C@@H](O)[C@H]1O [Adenosine]	< 0	< 0	< 0	< 0	< 0	< 0	< 0	< 0
N=C1S/C(=C\c2ccc(-c3ccc4c(c3)C(=O)NC4=O)o2)C(=O)N1c1ccc(Br)cc1 [Bioymifi]	< 0	< 0	8.03	1.38	1.4	6.44	5.76	7.95
CC[C@@]1(O)C[C@H](O[C@H]2C[C@H](N(C)C)[C@H](O[C@H]3C[C@H](O)[C@H](O[C@H]4CCC(=O)[C@H](C)O4)[C@H](C)O3)[C@H](C)O2)c2c(cc3c(c2O)C(=O)c2c(O)cccc2C3=O)[C@H]1C(=O)OC [Aclarubicin]	19.1	20	11.3	15.5	2.26	33	18.3	42.8
CC(=O)O[C@@H]1[C@@H](OC(C)=O)[C@@H](O)[C@H](Oc2c(-c3ccc(O)cc3)oc3cc(O)cc(O)c3c2=O)O[C@H]1C	< 0	< 0	< 0	< 0	< 0	< 0	< 0	< 0
O=C1NC(=O)/C(=C/c2ccc3c(c2)OC(F)(F)O3)S1	< 0	< 0	< 0	< 0	3.57	< 0	< 0	< 0
C[C@H](NC(=O)c1sccc1OCc1ccc(Cl)cc1)c1ccccc1	< 0	< 0	< 0	< 0	< 0	13.4	3.06	< 0
COc1cc2c(cc1O)CC[C@@H]1[C@@H]2CC[C@]2(C)[C@@H](O)CC[C@@H]12 [2-Methoxyestradiol]	< 0	21.7	12.4	< 0	1.15	25	24.4	8.08
OC[C@@H](O)[C@@H](O)[C@@H](O)CO [Ribitol]	< 0	< 0	< 0	< 0	< 0	< 0	< 0	< 0
CC(=O)OC[C@H]1O[C@@H](n2ccc(=O)[nH]c2=O)[C@H](OC(C)=O)[C@@H]1OC(C)=O [Uridine triacetate]	2.61	< 0	< 0	< 0	< 0	6.37	< 0	< 0
CC(=O)Oc1ccccc1C(=O)Nc1ncc([N+](=O)[O-])s1 [Nitazoxanide]	< 0	< 0	< 0	< 0	< 0	< 0	< 0	< 0
NC(=O)c1cccc(-c2cccc(OC(=O)NC3CCCCC3)c2)c1	< 0	< 0	< 0	< 0	< 0	< 0	< 0	< 0
Cc1cc(Nc2nc(N[C@@H](C)c3ncc(F)cn3)ncc2Cl)[nH]n1	< 0	< 0	< 0	< 0	< 0	< 0	< 0	< 0
CCn1cc(C(=O)O)c(=O)c2ccc(C)nc21 [Nalidixic acid]	< 0	< 0	< 0	< 0	< 0	< 0	< 0	< 0
CCC(=O)O[C@]1(C(=O)SCF)[C@H](C)C[C@H]2[C@@H]3C[C@H](F)C4=CC(=O)C=C[C@]4(C)[C@@]3(F)[C@@H](O)C[C@@]21C [Fluticasone propionate]	< 0	< 0	< 0	< 0	6.11	< 0	< 0	< 0
Clc1cc(Cl)cc(CNc2ncncc2-c2ccc3c(c2)OCO3)c1	< 0	< 0	< 0	< 0	< 0	2.48	< 0	< 0
COc1cccc2c1C(=O)c1c(O)c3c(c(O)c1C2=O)C[C@@](O)(C(=O)CO)C[C@@H]3O[C@H]1C[C@H](N)[C@H](O)[C@H](C)O1 [Doxorubicin (Adriamycin)]	65.1	62.1	91.3	83.7	93.5	88.2	90.5	100

Two entries picked at random from the list so far:
SMILES	reduction in cell viability [1] [%]	reduction in cell viability [2] [%]	reduction in cell viability [3] [%]	reduction in cell viability [4] [%]	reduction in cell viability [5] [%]	reduction in cell viability [6] [%]	reduction in cell viability [7] [%]	reduction in cell viability [8] [%]
Cc1cc(Nc2nc(N[C@@H](C)c3ncc(F)cn3)ncc2Cl)[nH]n1	< 0	< 0	< 0	< 0	< 0	< 0	< 0	< 0
Nc1ncnc2nc(-c3ccc(N4CCOCC4)nc3)cc(-c3cccc(Br)c3)c12	< 0	< 0	< 0	< 0	< 0	< 0	< 0	< 0

The list goes on:

SMILES	reduction in cell viability [1] [%]	reduction in cell viability [2] [%]	reduction in cell viability [3] [%]	reduction in cell viability [4] [%]	reduction in cell viability [5] [%]	reduction in cell viability [6] [%]	reduction in cell viability [7] [%]	reduction in cell viability [8] [%]
CNC(=O)c1cc(Oc2ccc(NC(=O)Nc3cc(C(C)(C)C)nn3-c3ccc4ncccc4c3)c(F)c2)ccn1	< 0	< 0	12.5	< 0	< 0	< 0	21.1	< 0
Cc1csc(-c2nnc(Nc3ccc(Oc4ncccc4-c4ccnc(N)n4)cc3)c3ccccc23)c1	< 0	< 0	28.9	23.6	8.02	< 0	12.2	58.1
CC(/C=C/C(=O)NO)=C\[C@@H](C)C(=O)c1ccc(N(C)C)cc1 [Trichostatin A]	73.4	27	48.2	33.4	55.4	55.9	75.2	78.8
O=c1[nH]cnc2c1ncn2[C@H]1CC[C@@H](CO)O1 [2,3-Dideoxyinosine]	< 0	< 0	< 0	< 0	< 0	10.3	< 0	< 0
COC1CCC(N(C(=O)C2CCC(C)CC2)c2cc(C3=CCCCC3)sc2C(=O)O)CC1 (stereo unspecified)	< 0	< 0	< 0	< 0	< 0	< 0	< 0	< 0
N#CC(c1ccnc(NCCc2cccnc2)n1)c1nc2ccccc2s1 (stereo unspecified) [JNK Inhibitor V]	< 0	< 0	< 0	< 0	< 0	10.5	3.32	< 0
COC1=C(OC)C(=O)C(C/C=C(\C)CC/C=C(\C)CC/C=C(\C)CC/C=C(\C)CC/C=C(\C)CC/C=C(\C)CC/C=C(\C)CC/C=C(\C)CC/C=C(\C)CCC=C(C)C)=C(C)C1=O [Ubidecarenone]	< 0	< 0	< 0	< 0	< 0	< 0	< 0	< 0
CN(C)CCC=C1c2ccccc2C=Cc2ccccc21 [Cyclobenzaprine hydrochloride]	< 0	< 0	< 0	< 0	< 0	< 0	< 0	< 0
CC1(C)[C@@H](O)CC[C@]2(C)[C@H]3C(=O)C=C4[C@@H]5C[C@@](C)(C(=O)O)CC[C@]5(C)CC[C@@]4(C)[C@]3(C)CC[C@@H]12 [Enoxolone]	< 0	< 0	< 0	< 0	< 0	< 0	5.86	< 0
CCCCCNC(=O)N1CCC(CN(Cc2ccc(Cl)cc2)Cc2ccc([N+](=O)[O-])s2)C1 (stereo unspecified)	< 0	< 0	< 0	< 0	< 0	< 0	< 0	< 0
Cc1ncc(-c2ccnc(Nc3ccc(S(C)(=O)=O)cc3)n2)n1C(C)C	< 0	< 0	< 0	< 0	< 0	< 0	< 0	< 0
COc1c(Cl)cc2c([nH]c3cnccc32)c1NC(=O)c1cccnc1C	< 0	< 0	< 0	< 0	< 0	< 0	0.68	< 0
CC(C)CNc1ccnc(NCc2csc(-c3ccccc3)n2)n1	< 0	< 0	< 0	< 0	< 0	< 0	< 0	< 0
Nc1nc(N)c2nc(CNc3ccc(C(=O)N[C@@H](CCC(=O)O)C(=O)O)cc3)cnc2n1 [Aminopterin]	< 0	< 0	< 0	< 0	< 0	< 0	< 0	< 0
Clc1cccc(-n2nnnc2NCc2ccccc2Oc2ccccn2)c1Cl	< 0	< 0	< 0	< 0	< 0	< 0	3.72	< 0
Nc1ccc(S(N)(=O)=O)cc1 [Sulfanilamide]	< 0	< 0	< 0	< 0	< 0	< 0	< 0	< 0
COc1ccc2c(c1)c(C1=C(c3c[nH]c4ccccc34)C(=O)NC1=O)cn2CCCN(C)C	< 0	< 0	< 0	< 0	< 0	< 0	< 0	< 0
O=c1c(O)c(-c2ccc(O)c(O)c2)oc2cc(O)ccc12 [Fisetin]	< 0	< 0	< 0	< 0	15.3	< 0	33.1	< 0
